Reference: PubChem BioAssay AID624291 (National Center for Advancing Translational Sciences (NCATS), 2012)
Among all 350,000 compounds or so, about 220 (0.063%) were called active. Inconclusive means that the source gave no clear call. Such entries were picked first, then a sample of the others. Calls come from the whole dose curve; as a rule, active = well fitted activation curve with a large enough effect; inconclusive = small, poorly fitted or top-dose-only effect; inactive = no such curve, though single readings can be large or run the other way. Potencies of inconclusive entries are doubtful fits and often do not repeat.

test: qHTS for Activators of Integrin-Mediated Alleviation for Muscular Dystrophy; conditions: alpha7betagal myoblasts, beta-gal FDG fluorescence, 48 h; activation: at 38.3 µM (top of the series); note: nearly all actives have a fitted effect of over 60% in size;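 for activation: 100% = response of the positive control SU9516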
Outline: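 Alpha7betagal+/- myoblasts (passage 13) were plated 16-24 hr, then exposed to compounds (1:260 dilution of DMSO stock) for 48 hours at 37C. After MPER lysis, β-galactosidase reporter activity was read as FDG fluorescence (ex 480/em 540) after 30 minutes.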
Potency is the fitted concentration of half-maximal effect.

Potency, inconclusive:
CCC(CC)C(=O)Nc1nnc(S(=O)(=O)N(CC)c2ccc(OC)cc2)s1 1.26 µM [activator, partial curve, poor fit]
Cc1cc(NC(=O)CSc2nccn2C)n(-c2ccccc2)n1 31.6 µM [activator, single point]
Cc1cc(OCC(=O)NNC(=S)NCC2CCCO2)cc(C)c1Cl (configuration not stated) 5.01 µM [activator, single point]
Cc1ccc(-c2nnn(C(C)C(=O)N3c4ccccc4CCc4ccccc43)n2)cc1 (configuration not stated) 2.82 µM [activator, partial curve, poor fit]
CSCCC(NC(=O)c1ccccc1)C(=O)N1CCN(C(c2ccccc2)c2ccccc2)CC1 (configuration not stated) 31.6 µM [activator, single point]
Cc1cc(C)c(C#N)c(SCC(=O)Nc2ccc(S(=O)(=O)Nc3ncccn3)cc2)n1 17.8 µM [activator, partial curve, poor fit]
Cc1cccc(N(C)C(=O)c2cnn(-c3ccccc3)c2C)c1 2.24 µM [activator, partial curve, poor fit]
CCCC1=C(C(=O)OCC)C(c2cccs2)n2ncnc2N1 (configuration not stated) 28.2 µM [activator, single point]
O=C(O)CCn1cc(C2CC(c3ccccc3)=NN2c2ccccc2)c(-c2ccccc2)n1 (configuration not stated) 5.01 µM [activator, partial curve, poor fit]
O=c1cc(CSc2nnc(NC3CCCCC3)s2)nc2sccn12 15.8 µM [activator, single point]
O=C(Cn1nc(Cl)nc1Cl)c1ccc(F)cc1 12.6 µM [activator, single point]
c1ccc(-c2cc3c(N4CCCC4)ncnc3s2)cc1 2 µM [activator, full curve, poor fit]
COc1cccc(NC(=O)C2CC(=O)N(Cc3ccco3)C2)c1 (configuration not stated) 28.2 µM [activator, single point]
COc1ccc(CNc2oc(COc3ccccc3)nc2C#N)cc1 1.41 µM [activator, full curve, poor fit]
C=CCNC(=S)Nc1cc(S(=O)(=O)N2CCOCC2)ccc1-n1cncn1 28.2 µM [activator, single point]
Cc1ccc(NS(=O)(=O)c2ccc(F)cc2)nc1 5.01 µM [activator, single point]
O=C1NC(=S)N/C1=C\c1ccccc1OCc1ccc(C(=O)O)cc1 3.98 µM [activator, single point]
Cn1c(SCC(=O)N2CCOCC2)nnc1-c1ccco1 12.6 µM [activator, single point]
O=C(N/C=C/n1cnc2cc(C(F)(F)F)ccc21)c1ccccc1 28.2 µM [activator, single point]
COc1ccc(S(=O)(=O)N2CCc3ccccc32)cc1OC 5.01 µM [activator, single point]
N#C/C(=C/c1ccc(O)cc1)C(=O)NCc1ccc(Cl)cc1 3.55 µM [activator, single point]
CC(C)(C)OC(=O)NCCCCCC(=O)N/N=C/c1coc2ccccc2c1=O 3.16 µM [activator, partial curve, poor fit]
CCNC(=S)Nc1ccc(N2CCCCC2)cc1 12.6 µM [activator, single point]
CCOc1ccc(NS(=O)(=O)c2ccc3[nH]cc(C(=O)NC(C)CC)c(=O)c3c2)cc1 (configuration not stated) 5.01 µM [activator, single point]
Cc1cc(NC(=O)Nc2ccccc2[N+](=O)[O-])n(C)n1 12.6 µM [activator, partial curve, poor fit]
O=C(CSc1nc2c([nH]c3ccccc32)c(=O)n1-c1ccccc1)NCC1CCCO1 (configuration not stated) 3.16 µM [activator, partial curve, poor fit]
COc1ccc(-n2nc(C(=O)NCC(=O)Nc3cc(OC)c(OC)c(OC)c3)c3ccccc3c2=O)cc1 2.24 µM [activator, partial curve, poor fit]
CN(CC(=O)Nc1cccc(C(F)(F)F)c1)Cc1ccccc1 28.2 µM [activator, single point]
O=C(CSc1nnc2ccc(-c3ccccn3)nn12)NCC1CCCO1 (configuration not stated) 2.82 µM [activator, partial curve, poor fit]
O=C(NCc1cccs1)C(=O)NCC1OCCCN1S(=O)(=O)c1cccs1 (configuration not stated) 0.501 µM [activator, partial curve, poor fit]
COCCCNC(=O)c1ccc(CSCc2ccc(C)cc2)o1 2.82 µM [activator, single point]
COc1ccc(-c2cc(C(=O)Nc3ccc(S(=O)(=O)Nc4ncccn4)cc3)c3ccccc3n2)cc1 28.2 µM [activator, single point]
CCC1(Cc2ccccc2)NC(=O)c2ccccc2O1 (configuration not stated) 5.01 µM [activator, partial curve, poor fit]
Cc1cc(=O)oc2c(C)c(OC(=O)c3ccco3)ccc12 2.24 µM [activator, partial curve, poor fit]
S=C1NC2=C(C(c3ccc(Br)cc3)N1)N1CCC2CC1 (configuration not stated) 5.01 µM [activator, single point]
Cc1ccc(NC(=O)C2CCN(S(=O)(=O)c3cccs3)CC2)cc1 3.16 µM [activator, single point]
O=C(Nc1ccc(Br)cc1)c1ccc(F)c(S(=O)(=O)N2CCN(c3ccccn3)CC2)c1 2.24 µM [activator, single point]
Cc1ccc(CC(=O)N2CCN(C(=O)C3CCCO3)CC2)cc1 (configuration not stated) 4.47 µM [activator, full curve, poor fit]
O=C(O)c1cccc(NC(=O)c2cc(S(=O)(=O)N3CCOCC3)cs2)c1 5.01 µM [activator, single point]
CCOC(=O)N1CCN(C(=O)Cn2nc(C)n3nc(-c4ccccc4)cc3c2=O)CC1 5.01 µM [activator, single point]
CCCOc1cc(C)c(S(=O)(=O)n2ccc(C)n2)cc1C 0.501 µM [activator, full curve, poor fit]
COc1ccc(Br)cc1C(=O)Nc1cc(C)cc(C)c1 3.55 µM [activator, full curve, poor fit]
O=C1CSC(=O)N1CCOCCN1C(=O)CSC1=O 3.98 µM [activator, partial curve, poor fit]
CC(NC(=O)CCNS(=O)(=O)c1ccc2c(c1)c(=O)n(C)c(=O)n2C)c1ccccc1 (configuration not stated) 31.6 µM [activator, single point]
Cc1ccc(-c2noc(-c3ccno3)n2)cc1 15.8 µM [activator, partial curve, poor fit]
COc1cccc(NC(=O)COC(=O)Cc2ccc(Br)cc2)c1 12.6 µM [activator, single point]
COc1ccc(/C=C/C(=O)NCCCN2CCCC2)cc1 5.01 µM [activator, single point]
NS(=O)(=O)c1cc(C(=O)OCC(=O)c2ccc3c(c2)OCCO3)ccc1Cl 0.501 µM [activator, full curve, poor fit]

activation, inconclusive:
CCc1nc(C)cn1S(=O)(=O)c1ccc([N+](=O)[O-])cc1 -8.33% [activator]
CC(=O)c1cccc(CN(C)CC2CCCN(CCc3ccccc3C)C2)c1 (configuration not stated) -45.7% [activator]

activation, inactive:
N#Cc1ccc(Oc2cccc3cccnc23)c([N+](=O)[O-])c1 13.2%
Oc1ccc(O)c(Cc2nc3ccccc3s2)c1 26.7%
COc1ccc(/C=C/c2c(-c3cccc(C)c3)oc3ccc(N4CCOCC4)cc23)cc1 0%
Cc1ccc(-c2cc(C(=O)NN3CCOCC3)c3cc(Br)ccc3n2)o1 0.409%
Cc1c(Cl)cccc1NC(=S)NN -4.46%
COc1ccc(C(CNC(=O)c2ccc(Cl)c(NC(=O)c3cccs3)c2)N2CCCC2)cc1 (configuration not stated) -16.8%
O=C(NCCN1C(=O)S/C(=C\c2ccc(Cl)c([N+](=O)[O-])c2)C1=O)C1=COCCO1 -59.8%
CC1CCCN(C2=NC(=O)/C(=C/c3cn(-c4ccccc4)nc3-c3cccc(S(=O)(=O)N(C)C)c3)S2)C1 (configuration not stated) -31.4%
NNc1nc2c(Cl)ccc(Cl)c2s1 -0.853%
C[C@@]12C(=O)Nc3ccc(Br)cc3C(=O)N1[C@H]1c3cc(Br)ccc3OC[C@@H]1[C@@H]2c1ccccc1 -17%
CCN(CC)S(=O)(=O)c1ccc(N2CCOCC2)c(NC(=O)c2cccc3c(=O)c(C)c(-c4ccccc4)oc23)c1 -12.8%
O=C(N/N=C/C1CC=CCC1)c1cc(Br)ccc1O (configuration not stated) 16.4%
Cc1nc(NC(=O)C(Cl)Cl)sc1C(=O)N(C)C 7.03%
COc1ccc(Nc2ccccc2N)cc1 -42.3%
C=CCn1c(-c2cc(-c3ccccc3)sc2N)n[nH]c1=S 3.85%
CC(=O)N1c2ccc(S(=O)(=O)NCCC(=O)Nc3ccc(Cl)cc3)cc2CC1C (configuration not stated) 13.1%
CCN(CC)C(=S)SCC(=O)c1ccccc1 16.6%

Ordered by number of heavy atoms (descending): part of the list above.
activation, inactive:
CC1CCCN(C2=NC(=O)/C(=C/c3cn(-c4ccccc4)nc3-c3cccc(S(=O)(=O)N(C)C)c3)S2)C1 (configuration not stated) -31.4%
COc1ccc(C(CNC(=O)c2ccc(Cl)c(NC(=O)c3cccs3)c2)N2CCCC2)cc1 (configuration not stated) -16.8%
Cc1ccc(-c2cc(C(=O)NN3CCOCC3)c3cc(Br)ccc3n2)o1 0.409%
O=C(N/N=C/C1CC=CCC1)c1cc(Br)ccc1O (configuration not stated) 16.4%
Oc1ccc(O)c(Cc2nc3ccccc3s2)c1 26.7%
CCN(CC)C(=S)SCC(=O)c1ccccc1 16.6%
NNc1nc2c(Cl)ccc(Cl)c2s1 -0.853%
